{
  "source": "patent US20230146455A1",
  "about": "(Yuyu Pharma, Inc., priority 2020, published 2023)",
  "assay_type_in_all_cases": "cell-based, human",
  "key": {"TNF-alpha": {"system": "TNF-alpha", "experiment": "Example 9 Luminex, LPS hPBMCs: TNF-alpha", "procedure": "(§1) Treatment Human PBMCs were pretreated with YY-101, YDE-011 and YDE-043 or reference compound; Xiidra® at various concentration (ranging from 1 nM to 100 uM) for 2 h before stimulation. An equal volume of 0.5% DMSO was used as a vehicle control. Then, the cells were treated with LPS at 5 ug/ml. The supernatants from treated cells were harvested at 24 h and placed in a 96 well for Luminex cytokine & chemokine profiling using a Luminex 200 multiplex assay (Luminex; R&D system, USA).\n(§2) The main study arm with triplicate wells per group in a 24-well plate: • 1. Blank • 2. PBMC: 0.5% DMSO • 3. PBMC+LPS (5 ug/ml) • 4. PBMC+YY-101 100 uM • 5. PBMC+YY-101 10 uM • 6. PBMC+YY-101 1 uM • 7. PBMC+YY-101 0.1 uM • 8. PBMC+YY-101 0.01 uM • 9. PBMC+LPS (5 ug/ml)+Xiidra®100 uM • 10. PBMC+LPS (5 ug/ml)+Xiidra® 10 uM • 11. PBMC+LPS (5 ug/ml)+Xiidra® 1 uM • 12. PBMC+LPS (5 ug/ml)+Xiidra®0.1 uM • 13. PBMC+LPS (5 ug/ml)+Xiidra®0.01 uM • 14. PBMC+LPS (5 ug/ml)+Xiidra®0.001 uM • 15. PBMC+LPS (5 ug/ml)+YY-101 100 uM • 16. PBMC+LPS (5 ug/ml)+YY-101 10 uM • 17. PBMC+LPS (5 ug/ml)+YY-101 1 uM • 18. PBMC+LPS (5 ug/ml)+YY-101 0.1 uM • 19. PBMC+LPS (5 ug/ml)+YY-101 0.01 uM • 20. PBMC+LPS (5 ug/ml)+YY-101 0.001 uM • 21. PBMC+LPS (5 ug/ml)+YDE-011 100 uM • 22. PBMC+LPS (5 ug/ml)+YDE-011 10 uM • 23. PBMC+LPS (5 ug/ml)+YDE-011 1 uM • 24. PBMC+LPS (5 ug/ml)+YDE-011 0.1 uM • 25. PBMC+LPS (5 ug/ml)+YDE-011 0.01 uM • 26. PBMC+LPS (5 ug/ml)+YDE-011 0.001 uM • 27. PBMC+LPS (5 ug/ml)+YDE-043 100 uM • 28. PBMC+LPS (5 ug/ml)+YDE-043 10 uM • 29. PBMC+LPS (5 ug/ml)+YDE-043 1 uM • 30. PBMC+LPS (5 ug/ml)+YDE-043 0.1 uM • 31. PBMC+LPS (5 ug/ml)+YDE-043 0.01 uM • 32. PBMC+LPS (5 ug/ml)+YDE-043 0.001 uM\n(§3) Multiplex assay was used to measure 30 cytokines and chemokines. The 1:2, 1:10 and 1:200 diluted cell supernatant and serial dilution of the standard were dispensed into a 96 well plate at 50 ul/well. Then, the pre-mixed cocktail of antibody-coated magnetic beads was dispensed at 50 ul/well and incubated at room temperature for 2 h in a horizontal orbital microplate shaker at 800±500 rpm. The beads were washed using a magnetic device to prevent loss. The biotin-antibody was dispensed in 50 ul of each well and incubated at room temperature for 1 h in a shaker at 800±500 rpm. After washing, streptavidin-PE was added at 50 ul/well and incubated at room temperature for 30 min in a shaker under the same conditions. Finally, after washing, wash buffer (100 ul/well) was added to the plate and incubated in a shaker for 2 min. The Luminex™ 200 setting were set according to the manufacturer's protocol. The data was calculated with a standard five-parameter logistic nonlinear regression analysis of the data (xPonent software 4.2, USA). The levels of cytokine/chemokine are normalized to the live cell counts (1×10^5 cells/mL) and presented as concentrations per mL (pg/mL or ng/mL)."}, "CCL2/JE/MCP-1": {"system": "CCL2/JE/MCP-1", "experiment": "Example 9 Luminex, LPS hPBMCs: CCL2/JE/MCP-1", "conditions": "Bead CCL2/JE/MCP-1", "procedure": "as §1, §2, §3"}, "IFN-gamma": {"system": "IFN-gamma", "experiment": "Example 9 Luminex, LPS hPBMCs: IFN-gamma", "procedure": "as §1, §2, §3"}, "IL-1 alpha": {"system": "IL-1 alpha", "experiment": "Example 9 Luminex, LPS hPBMCs: IL-1 alpha", "conditions": "Bead IL-1 alpha, replicates and Mean", "procedure": "as §1, §2, §3"}, "[1]": {"conditions": "PBMC + LPS(5 ug/ml) + test article 0.001 uM, Mean"}, "[2]": {"conditions": "PBMC + LPS(5 ug/ml) + test article 0.01 uM, Mean"}, "[3]": {"conditions": "PBMC + LPS(5 ug/ml) + test article 0.1 uM, Mean"}, "[4]": {"conditions": "PBMC + LPS(5 ug/ml) + test article 1 uM, Mean"}, "[5]": {"conditions": "PBMC + LPS(5 ug/ml) + test article 10 uM, Mean"}, "[6]": {"conditions": "PBMC + LPS(5 ug/ml) + test article 100 uM, Mean"}},
  "note": "“And” between values parts separate entries of the source, which are not always exact repeats. Identical values can stand only once. Where a SMILES comes first, the peptide text is derived from it. [ ]: non-standard residue; d: D form. Hyp = O=C(O)[C@@H]1C[C@@H](O)CN1",
  "data": [
    {"molecule": "CC(C)C[C@H](NC(=O)CNC(=O)[C@H](CC(C)C)NC(=O)[C@H](CCC(N)=O)NC(=O)CNC(=O)[C@@H]1C[C@@H](O)CN1)C(=O)N[C@@H](C)C(=O)NCC(=O)N1CCC[C@H]1C(=O)N[C@@H](CCCCN)C(=O)O", "note": "[YDE-011] (H-[Hyp]GQLGLAGPK-OH)", "values": [
      {"measurement": "MFI, Bead name: TNF-alpha", "setting": "TNF-alpha; [1]", "value": 431.5},
      {"measurement": "MFI, Bead name: TNF-alpha", "setting": "TNF-alpha; PBMC + LPS(5 ug/ml) + test article 0.001 uM, individual replicates (1st, 2nd, 3rd)", "value": "427.5 and 426.0 and 441.0"},
      {"measurement": "MFI, Bead name: TNF-alpha", "setting": "TNF-alpha; [2]", "value": 443.7},
      {"measurement": "MFI, Bead name: TNF-alpha", "setting": "TNF-alpha; PBMC + LPS(5 ug/ml) + test article 0.01 uM, individual replicates (1st, 2nd, 3rd)", "value": "441.0 (2×) and 449.0"},
      {"measurement": "MFI, Bead name: TNF-alpha", "setting": "TNF-alpha; [3]", "value": 435.7},
      {"measurement": "MFI, Bead name: TNF-alpha", "setting": "TNF-alpha; PBMC + LPS(5 ug/ml) + test article 0.1 uM, individual replicates (1st, 2nd, 3rd)", "value": "437.0 and 438.0 and 432.0"},
      {"measurement": "MFI, Bead name: TNF-alpha", "setting": "TNF-alpha; [4]", "value": 431.3},
      {"measurement": "MFI, Bead name: TNF-alpha", "setting": "TNF-alpha; PBMC + LPS(5 ug/ml) + test article 1 uM, individual replicates (1st, 2nd, 3rd)", "value": "440.0 and 415.0 and 439.0"},
      {"measurement": "MFI, Bead name: TNF-alpha", "setting": "TNF-alpha; [5]", "value": 456.0},
      {"measurement": "MFI, Bead name: TNF-alpha", "setting": "TNF-alpha; PBMC + LPS(5 ug/ml) + test article 10 uM, individual replicates (1st, 2nd, 3rd)", "value": "479.0 and 431.0 and 458.0"},
      {"measurement": "MFI, Bead name: TNF-alpha", "setting": "TNF-alpha; [6]", "value": 334.2},
      {"measurement": "MFI, Bead name: TNF-alpha", "setting": "TNF-alpha; PBMC + LPS(5 ug/ml) + test article 100 uM, individual replicates (1st, 2nd, 3rd)", "value": "340.0 and 331.5 and 331.0"},
      {"measurement": "MFI", "setting": "CCL2/JE/MCP-1; [1]", "value": 6316.7},
      {"measurement": "MFI", "setting": "CCL2/JE/MCP-1; PBMC + LPS(5 ug/ml) + test article 0.001 uM, individual replicates", "value": "6216.5 and 6415.5 and 6318.0"},
      {"measurement": "MFI", "setting": "CCL2/JE/MCP-1; [2]", "value": 6695.0},
      {"measurement": "MFI", "setting": "CCL2/JE/MCP-1; PBMC + LPS(5 ug/ml) + test article 0.01 uM, individual replicates", "value": "6375.0 and 7050.0 and 6660.0"},
      {"measurement": "MFI", "setting": "CCL2/JE/MCP-1; [3]", "value": 5603.7},
      {"measurement": "MFI", "setting": "CCL2/JE/MCP-1; PBMC + LPS(5 ug/ml) + test article 0.1 uM, individual replicates", "value": "5566.0 and 5817.0 and 5428.0"},
      {"measurement": "MFI", "setting": "CCL2/JE/MCP-1; [4]", "value": 5970.2},
      {"measurement": "MFI", "setting": "CCL2/JE/MCP-1; PBMC + LPS(5 ug/ml) + test article 1 uM, individual replicates", "value": "5965.5 and 6315.0 and 5630.0"},
      {"measurement": "MFI", "setting": "CCL2/JE/MCP-1; [5]", "value": 5002.5},
      {"measurement": "MFI", "setting": "CCL2/JE/MCP-1; PBMC + LPS(5 ug/ml) + test article 10 uM, individual replicates", "value": "4743.0 and 5215.5 and 5049.0"},
      {"measurement": "MFI", "setting": "CCL2/JE/MCP-1; [6]", "value": 321.3},
      {"measurement": "MFI", "setting": "CCL2/JE/MCP-1; PBMC + LPS(5 ug/ml) + test article 100 uM, individual replicates", "value": "262.0 and 360.0 and 342.0"},
      {"measurement": "MFI (Bead name: IFN-gamma)", "setting": "IFN-gamma; [1]", "value": 185.3},
      {"measurement": "MFI (Bead name: IFN-gamma)", "setting": "IFN-gamma; PBMC + LPS(5 ug/ml) + test article 0.001 uM, single replicates", "value": "147.0 and 174.0 and 235.0"},
      {"measurement": "MFI (Bead name: IFN-gamma)", "setting": "IFN-gamma; [2]", "value": 190.0},
      {"measurement": "MFI (Bead name: IFN-gamma)", "setting": "IFN-gamma; PBMC + LPS(5 ug/ml) + test article 0.01 uM, single replicates", "value": "185.0 and 180.0 and 205.0"},
      {"measurement": "MFI (Bead name: IFN-gamma)", "setting": "IFN-gamma; [3]", "value": 195.3},
      {"measurement": "MFI (Bead name: IFN-gamma)", "setting": "IFN-gamma; PBMC + LPS(5 ug/ml) + test article 0.1 uM, single replicates", "value": "216.0 and 180.0 and 190.0"},
      {"measurement": "MFI (Bead name: IFN-gamma)", "setting": "IFN-gamma; [4]", "value": 241.2},
      {"measurement": "MFI (Bead name: IFN-gamma)", "setting": "IFN-gamma; PBMC + LPS(5 ug/ml) + test article 1 uM, single replicates", "value": "268.0 and 220.5 and 235.0"},
      {"measurement": "MFI (Bead name: IFN-gamma)", "setting": "IFN-gamma; [5]", "value": 203.0},
      {"measurement": "MFI (Bead name: IFN-gamma)", "setting": "IFN-gamma; PBMC + LPS(5 ug/ml) + test article 10 uM, single replicates", "value": "237.5 and 208.0 and 163.5"},
      {"measurement": "MFI (Bead name: IFN-gamma)", "setting": "IFN-gamma; [6]", "value": 124.3},
      {"measurement": "MFI (Bead name: IFN-gamma)", "setting": "IFN-gamma; PBMC + LPS(5 ug/ml) + test article 100 uM, single replicates", "value": "142.0 and 114.0 and 117.0"},
      {"measurement": "MFI", "setting": "IL-1 alpha; PBMC + LPS(5 ug/ml) + YDE011 0.001 uM", "value": "383.0 and 382.0 and 416.5 and 393.8"},
      {"measurement": "MFI", "setting": "IL-1 alpha; PBMC + LPS(5 ug/ml) + YDE011 0.01 uM", "value": "414.0 and 444.5 and 416.8 and 392.0"},
      {"measurement": "MFI", "setting": "IL-1 alpha; PBMC + LPS(5 ug/ml) + YDE011 0.1 uM", "value": "378.0 and 352.0 and 398.0 and 376.0"},
      {"measurement": "MFI", "setting": "IL-1 alpha; PBMC + LPS(5 ug/ml) + YDE011 1 uM", "value": "400.5 and 363.0 and 396.0 and 386.5"},
      {"measurement": "MFI", "setting": "IL-1 alpha; PBMC + LPS(5 ug/ml) + YDE011 10 uM", "value": "410.0 and 372.0 and 396.0 and 392.7"},
      {"measurement": "MFI", "setting": "IL-1 alpha; PBMC + LPS(5 ug/ml) + YDE011 100 uM", "value": "532.0 and 472.0 and 518.0 and 507.3"}
    ]}
  ]
}
